Test results taken from patent US20070077597A1 (published 2007).
These are yes or no findings as the source states them, for the method shown. Some binding calls cover weakened binding; strength is not graded here. Each block holds one substance with its values, some of them ahead of it.

The chains behind the UniProt entries cited, without tags or fusion partners.
UniProt P02699: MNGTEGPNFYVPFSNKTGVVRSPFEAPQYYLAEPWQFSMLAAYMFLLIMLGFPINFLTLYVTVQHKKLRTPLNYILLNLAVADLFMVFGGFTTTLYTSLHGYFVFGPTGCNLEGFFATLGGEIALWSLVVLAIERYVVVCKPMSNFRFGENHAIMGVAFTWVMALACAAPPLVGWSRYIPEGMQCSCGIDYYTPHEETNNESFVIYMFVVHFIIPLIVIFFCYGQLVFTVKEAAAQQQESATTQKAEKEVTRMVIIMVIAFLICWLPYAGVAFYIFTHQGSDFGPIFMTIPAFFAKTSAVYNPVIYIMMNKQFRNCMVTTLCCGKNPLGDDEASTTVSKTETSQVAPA

What was measured:
[1] = molecular target: light-activated bovine rhodopsin (metarhodopsin II) in rod outer segment membranes (bovine) (UniProt P02699); test: panning, LacI Gt library on immobilized ROS membranes
[2] = molecular target: T1, human thrombin receptor (PAR1) (human, UniProt P25116 42-425); test: panning, LacI Gq library on CHO membranes with PAR1; competitor …
T1 sequence (looked up): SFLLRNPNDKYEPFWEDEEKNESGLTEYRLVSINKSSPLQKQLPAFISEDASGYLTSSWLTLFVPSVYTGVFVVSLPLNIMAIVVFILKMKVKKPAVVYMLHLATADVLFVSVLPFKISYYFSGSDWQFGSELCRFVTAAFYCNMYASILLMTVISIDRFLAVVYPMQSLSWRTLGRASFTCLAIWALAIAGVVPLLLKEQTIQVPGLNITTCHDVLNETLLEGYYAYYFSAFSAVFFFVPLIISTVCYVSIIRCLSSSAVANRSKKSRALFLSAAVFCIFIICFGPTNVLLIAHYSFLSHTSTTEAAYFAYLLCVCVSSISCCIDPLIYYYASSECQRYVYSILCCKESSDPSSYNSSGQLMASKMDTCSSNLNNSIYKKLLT

[3] = molecular target: T1, human thrombin receptor (PAR1); test: panning, G11 library, CHO expressed PAR1
[4] = molecular target: T1, human thrombin receptor (PAR1); test: panning, LacI Gq library on purified PAR1 in lipid vesicles; competitor …
[5] = molecular target: T1, human thrombin receptor (PAR1); test: panning, G11 library, recombinant reconstituted PAR1
[6] = molecular target: T1, human thrombin receptor (PAR1); test: panning, LacI Gq library on Sf9 membranes with PAR1; competitor …
[7] = molecular target: T1, human thrombin receptor (PAR1); test: panning, G11 library, Sf9 expressed PAR1
[8] = molecular target: T1, human thrombin receptor (PAR1); test: panning, G12 library on CHO-expressed PAR1; competitor …
[9] = molecular target: T1, human thrombin receptor (PAR1); test: panning, G13 library on CHO-expressed PAR1; competitor …
[10] = molecular target: T1, human thrombin receptor (PAR1); test: panning, Gt library on CHO-expressed PAR1; competitor …

binding [1]: binds
Substance: LacI fusion clone 9 (Gt library) (from UniProt P03023 1-360)

binding [2]: binds
binding [3]: binds
Substance: LacI fusion clone C4-5 (Gq/G11 library) (from UniProt P03023 1-360)

binding [2]: binds
binding [3]: binds
Substance: LacI fusion clone C4-19 (Gq/G11 library) (from UniProt P03023 1-360)

binding [2]: binds
binding [3]: binds
Substance: LacI fusion clone C5-10 (Gq/G11 library) (from UniProt P03023 1-360)

binding [2]: binds
binding [3]: binds
Substance: LacI fusion clone C7-10 (Gq/G11 library) (from UniProt P03023 1-360)

binding [2]: binds
binding [3]: binds
Substance: LacI fusion clone C7-13 (Gq/G11 library) (from UniProt P03023 1-360)

binding [4]: binds
binding [5]: binds
binding [3]: binds
Substance: LacI fusion clone R2-18 (Gq/G11 library) (from UniProt P03023 1-360)

binding [4]: binds
binding [5]: binds
binding [3]: binds
Substance: LacI fusion clone R3-37 (Gq/G11 library) (from UniProt P03023 1-360)

binding [4]: binds
binding [5]: binds
Substance: LacI fusion clone R3-38 (Gq/G11 library) (from UniProt P03023 1-360)

binding [4]: binds
Substance: LacI fusion clone R3-46 (Gq/G11 library) (from UniProt P03023 1-360)

binding [6]: binds
binding [7]: binds
Substance: LacI fusion clone S1-13 (Gq/G11 library) (from UniProt P03023 1-360)

binding [6]: binds
binding [7]: binds
Substance: LacI fusion clone S1-18 (Gq/G11 library) (from UniProt P03023 1-360)

binding [6]: binds
binding [7]: binds
Substance: LacI fusion clone S2-26 (Gq/G11 library) (from UniProt P03023 1-360)

binding [6]: binds
binding [7]: binds
Substance: LacI fusion clone S2-30 (Gq/G11 library) (from UniProt P03023 1-360)

binding [6]: binds
binding [7]: binds
Substance: LacI fusion clone S3-6 (Gq/G11 library) (from UniProt P03023 1-360)

binding [6]: binds
binding [7]: binds
Substance: LacI fusion clone S3-15 (Gq/G11 library) (from UniProt P03023 1-360)

binding [5]: binds
binding [3]: binds
binding [7]: binds
Substance: LacI fusion … (G11 library) (from UniProt P03023 1-360)

binding [9]: binds
Substance: LacI fusion … (G13 library, panned on PAR1) (from UniProt P03023 1-360)

binding [10]: binds
Substance: LacI fusion … (Gt library, panned on PAR1) (from UniProt P03023 1-360)

The remaining lines, values behind:

Substance: LacI fusion clone 10 (Gt library) (from UniProt P03023 1-360)
binding [1]: binds

Substance: LacI fusion clone C4-16 (Gq/G11 library) (from UniProt P03023 1-360)
binding [2]: binds
binding [3]: binds

Substance: LacI fusion clone C5-12 (Gq/G11 library) (from UniProt P03023 1-360)
binding [2]: binds
binding [3]: binds

Substance: LacI fusion clone C7-3 (Gq/G11 library) (from UniProt P03023 1-360)
binding [2]: binds
binding [3]: binds

Substance: LacI fusion clone C7-14 (Gq/G11 library) (from UniProt P03023 1-360)
binding [2]: binds
binding [3]: binds

Substance: LacI fusion clone R2-16 (Gq/G11 library) (from UniProt P03023 1-360)
binding [4]: binds
binding [5]: binds
binding [3]: binds

Substance: LacI fusion clone R2-17 (Gq/G11 library) (from UniProt P03023 1-360)
binding [4]: binds
binding [5]: binds
binding [3]: binds

Substance: LacI fusion clone R2-20 (Gq/G11 library) (from UniProt P03023 1-360)
binding [4]: binds
binding [5]: binds
binding [3]: binds

Substance: LacI fusion clone R2-21 (Gq/G11 library) (from UniProt P03023 1-360)
binding [4]: binds
binding [5]: binds
binding [3]: binds

Substance: LacI fusion clone R3-44 (Gq/G11 library) (from UniProt P03023 1-360)
binding [4]: binds
binding [5]: binds
binding [3]: binds

Substance: LacI fusion clone S1-23 (Gq/G11 library) (from UniProt P03023 1-360)
binding [6]: binds
binding [7]: binds

Substance: LacI fusion clone S2-36 (Gq/G11 library) (from UniProt P03023 1-360)
binding [6]: binds
binding [7]: binds

Substance: LacI fusion clone S3-8 (Gq/G11 library) (from UniProt P03023 1-360)
binding [6]: binds
binding [7]: binds

Substance: LacI fusion clone S3-10 (Gq/G11 library) (from UniProt P03023 1-360)
binding [6]: binds
binding [7]: binds

Substance: LacI fusion … (G12 library, panned on PAR1) (from UniProt P03023 1-360)
binding [8]: binds
